Experimental findings from PMC5847048 (Psychopharmacology, 2017) are described below.

In general, AUC(0-t) refers to the area under the concentration-time curve up to a stated or last time point. Lower therefore signals low exposure. As a reminder, the Cmax is the peak of the concentration-time curve.

Data set [1] relates to middle-aged mice (14–15 months old). Put plainly: Contextual serial discrimination (CSD) task. The data set is classed as in vivo, mouse. The conditions noted are these: Experiment 1 study B, donepezil 0.3 mg/kg per os daily 9 days, vehicle − 33.21%. How it is done:
Treatments were administered per os daily for nine consecutive days for studies involving the CSD and SA tasks. The 8th and the 9th oral administrations were given 60 min before acquisition and test phases in the CSD task, or before the training and the test sessions in the SA task.
The studies were carried out on mice according to the procedure described in full by Celerier et al. ([2004]) and Tronche et al. ([2010]) (Fig.1). Briefly, the mouse learns two consecutive spatial discriminations (D1 and D2) in a four hole-board apparatus (45 × 45 × 30 cm) enclosed with gray Plexiglas walls. The floor of the hole-board was interchangeable (white and rough versus black and smooth). […]
Fig. 1 a Contextual serial discrimination: at the acquisition phase, mice performed two consecutive spatial discrimination sessions varying by the color and texture of the floor, i.e., D1, discrimination 1, and D2, discrimination 2. […] Subsequently, mice were submitted to the test phase in which they were repositioned on the floor of the first discrimination without any food pellet in the apparatus. b Two types of responses were calculated: (i) correct responses corresponding to head-dips into the hole baited at the acquisition of the first discrimination (D1), on the same floor context; (ii) interference responses corresponding to head-dips into the hole baited at the other (second) discrimination (D2). […]

The nature of another data set: in vivo. The note with it: for AUC(0-t) / Cmax: C57BL/6J, mouse, in vivo, po, 1 mg/kg, repeated, plasma, middle-aged mice; for AUC(0-t): Mean AUClast; for Cmax: Mean Cmax. On the procedure:
The sampling times were 30 min, 1, 2, 4, and 6 h.
Plasma was extracted from the blood sample by centrifugation (+ 4 °C, 1500g, 10 min) and stored at − 80 °C. Then, plasma samples were sent in dry ice to Celerion (Switzerland) for the pharmacokinetic analysis.

[2] abbreviates: donepezil 1.0 mg/kg with S 47445 (0.3 mg/kg).

Molecules are shown by their SMILES.

`COc1cc2c(cc1OC)C(=O)C(CC1CCN(Cc3ccccc3)CC1)C2` (stereo not shown) [Donepezil, reference compound]: in data set [1], the “Strength of contextual memory (SCM) score, first discrimination D1” value turned out to be 18.46%. Further, the AUC(0-t) stood at 24 ng·h/mL in “in vivo” (donepezil 1.0 mg/kg alone) and 21.4 ng·h/mL in “in vivo” (setting [2]). Also, the Cmax in the data set “in vivo” (donepezil 1.0 mg/kg alone) was found to be 18.5 ng/mL; in “in vivo” (setting [2]) it was 12 ng/mL. Further, in “in vivo” (donepezil 1 mg/kg with S 47445 0.3 mg/kg), the “Change in donepezil plasma exposure when administered with S 47445” value is “no evidence of a change”. Also, in the data set “in vivo” (donepezil, limit of quantification 0.1 ng/ml), the “Plasma concentration at the active doses used in the pharmacological experiments” value was “below the limit of quantification”.
